Results: PMC3540053
Where a chain is given by its changes, count along the chain named. These are yes or no findings as the source states them, for the method shown.

T1: OsCOI2 (Oryza sativa) (UniProt Q84QA7)
T1 sequence: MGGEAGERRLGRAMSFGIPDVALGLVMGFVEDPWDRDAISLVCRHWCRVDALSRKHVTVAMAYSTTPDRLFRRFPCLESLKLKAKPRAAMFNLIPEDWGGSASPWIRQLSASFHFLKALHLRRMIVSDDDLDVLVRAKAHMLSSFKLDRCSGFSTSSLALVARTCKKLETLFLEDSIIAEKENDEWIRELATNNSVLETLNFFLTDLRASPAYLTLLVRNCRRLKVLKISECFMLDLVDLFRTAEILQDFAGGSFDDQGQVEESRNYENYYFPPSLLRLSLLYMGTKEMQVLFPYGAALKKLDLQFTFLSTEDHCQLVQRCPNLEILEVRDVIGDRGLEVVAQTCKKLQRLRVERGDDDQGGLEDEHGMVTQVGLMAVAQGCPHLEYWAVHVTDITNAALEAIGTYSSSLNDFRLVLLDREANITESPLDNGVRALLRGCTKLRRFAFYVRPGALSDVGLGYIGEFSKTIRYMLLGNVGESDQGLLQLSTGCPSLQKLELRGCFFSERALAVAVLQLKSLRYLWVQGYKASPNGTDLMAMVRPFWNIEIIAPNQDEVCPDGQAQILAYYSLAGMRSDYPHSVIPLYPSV

T2: OsCOI2(H391Y) (Oryza sativa) (UniProt Q84QA7)
T2 sequence: T1 sequence with H391Y

T3: OsCOI1a(N475Y) (Oryza sativa) (UniProt Q6Y9P5)
T3 sequence: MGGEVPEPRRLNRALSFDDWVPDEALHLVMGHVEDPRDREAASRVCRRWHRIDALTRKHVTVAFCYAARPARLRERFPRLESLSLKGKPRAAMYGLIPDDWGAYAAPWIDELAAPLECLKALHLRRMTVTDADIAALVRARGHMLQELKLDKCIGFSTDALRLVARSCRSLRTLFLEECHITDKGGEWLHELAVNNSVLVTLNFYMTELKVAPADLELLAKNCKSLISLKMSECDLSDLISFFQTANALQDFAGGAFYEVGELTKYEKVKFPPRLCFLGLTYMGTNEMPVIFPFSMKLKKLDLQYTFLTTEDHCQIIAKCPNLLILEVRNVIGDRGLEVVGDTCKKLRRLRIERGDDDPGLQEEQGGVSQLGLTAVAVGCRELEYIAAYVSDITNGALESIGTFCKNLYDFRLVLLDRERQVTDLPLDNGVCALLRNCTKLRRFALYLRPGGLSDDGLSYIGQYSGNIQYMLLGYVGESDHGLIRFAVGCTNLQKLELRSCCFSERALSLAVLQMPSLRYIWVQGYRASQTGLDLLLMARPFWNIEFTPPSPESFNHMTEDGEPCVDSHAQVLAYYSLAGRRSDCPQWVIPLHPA

T4: OsCOI2(N477Y) (Oryza sativa) (UniProt Q84QA7)
T4 sequence: T1 sequence with N477Y

B1: OsJAZ4 (protein, UniProt Q10QW3 1-187)
chain: MAMEGKSRRFAVACGVLSQYVRAEQKMAAAAGAAPARAVTTLSLMPGAEVVVEEEERREVGEEEAGPATAPAAPLTIFYGGRMVVFEDFPADKAAEVMRMASSGMAAAPAQREGAALADMPIMRKASLQRFFAKRKDRLAATTPYARPSPAETKASEPEEKKTPTSWLDLAASASAAARRDSLTIAL
B2: OsJAZ12 (protein, UniProt Q6Z2K1 1-157)
chain: MPPPAAVASLTLQVPGGAHDVTSLATSPRTMAVPGTTEQLTIFYSGSMVKFDNVPREKIRYACRLRRLYSSLQRSLQTQDTSMFPSSSSLHIQTKRRGYSVIRLLREMLMVCSSTRTKPMLVHSDSIGAQRTGTPPSRRRIHARGKSRSCQEMSHCW
B3: OsJAZ3 (protein, UniProt Q8GSI0 1-179)
chain: MASTDPMTRRFAVACGVLSQYVKANSSQPSTAAPVAQGVSGLMAAAAAAAAAPVVQEPGCEVDGGGQQFTIFYAGKVVVIDRCTPAMAAELMRFASAAQGGGGAPEAPPALVDMPIARKASLKRFLAKRKATPASARSSYVVRAAAAEEEQPPAKKAKAAVERREDWLALGSLGHMHSR

Biological target: T1, OsCOI2 (Oryza sativa)
Assay: two-hybrid; OsCOIs as baits in pGBKT7, OsJAZs or JAZs as preys in pGADT7, co-transformed into S. cerevisiae AH109; growth on SD without Ade, His, Leu and Trp (QDO) with 100 µM coronatine, 7 days; graded strong (+++), medium (++), weak (+), undetectable (−)

binding, no binding:
B1
B2
B3

Biological target: T2, OsCOI2(H391Y) (Oryza sativa)
Assay: as above

binding, no binding:
B1
B2
B3

Biological target: T3, OsCOI1a(N475Y) (Oryza sativa)
Assay: as above

binding, no binding:
B1
B2
B3

Biological target: T4, OsCOI2(N477Y) (Oryza sativa)
Assay: as above

binding, no binding:
B1
B2
B3
